Values quoted from earlier work as cited in paper PMC7693160 (Pharmaceutics, 2020).

Test system: Caco-2 cells
Conditions: calibrator values; cited from earlier work

In the case of CC(C)NCC(O)COc1ccc(CC(N)=O)cc1 (stereo not shown) [Atenolol], the “Papp, Caco-2, ref” value is given as 1.57 ×10⁻⁶ cm/s.
